Data on 1 compound can be found in patent US20110059910A1, “Novel aromatic fluoroglycoside derivatives, pharmaceuticals comprising said compounds and the use thereof” (SANOFI-AVENTIS, priority 2008, published 2011).

Amino acid sequences for entries named in this document (tags omitted).
UniProt P31639, whole entry: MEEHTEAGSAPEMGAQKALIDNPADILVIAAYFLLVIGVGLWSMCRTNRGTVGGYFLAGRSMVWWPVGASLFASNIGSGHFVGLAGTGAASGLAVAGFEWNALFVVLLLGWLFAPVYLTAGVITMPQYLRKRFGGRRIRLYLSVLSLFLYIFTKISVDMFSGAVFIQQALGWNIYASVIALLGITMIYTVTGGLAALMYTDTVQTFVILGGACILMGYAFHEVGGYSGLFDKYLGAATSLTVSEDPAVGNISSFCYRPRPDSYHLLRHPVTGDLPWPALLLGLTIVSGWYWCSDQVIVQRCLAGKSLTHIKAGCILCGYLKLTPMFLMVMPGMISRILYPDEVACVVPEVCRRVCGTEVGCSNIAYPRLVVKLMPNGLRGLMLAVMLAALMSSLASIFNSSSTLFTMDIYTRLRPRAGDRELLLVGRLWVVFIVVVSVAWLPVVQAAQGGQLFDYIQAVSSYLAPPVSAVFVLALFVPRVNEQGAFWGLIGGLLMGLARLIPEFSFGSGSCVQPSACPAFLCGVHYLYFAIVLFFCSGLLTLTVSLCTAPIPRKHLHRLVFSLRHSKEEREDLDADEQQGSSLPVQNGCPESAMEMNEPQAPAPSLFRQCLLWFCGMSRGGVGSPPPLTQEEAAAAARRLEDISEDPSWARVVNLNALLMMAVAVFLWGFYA

The target of this assay is human sodium-dependent glucose transporter 2 (SGLT2, SLC5A2) (Homo sapiens, UniProt P31639). As to the kind of experiment: Inhibition of the transport activity of human SGLT2 in vitro (α-MDG uptake in CHO-TRex-hSGLT2 cells). To be noted: read-out: IC50 SGLT2, 50 μM α-MDG, 120 min at 37° C. The source says: Inhibition of the Transport Activity of the Human Sodium-Dependent Glucose Transporter 2 (SGLT2, SLC5A2) In Vitro
1. Cloning of an Expression Vector for Human SGLT2
The cDNA for human SGLT2 was introduced into the pcDNA4/TO vector (Invitrogen) by means of standard methods of molecular biology as described in Sambrook et al. (Molecular Cloning, A Laboratory Manual, Second Edition). […] Bases 21 to 2039 correspond to the complete coding region of human SGLT2.
2. Production of a Recombinant Cell Line with Inducible Expression of Human SGLT2
The expression vector for human SGLT2 was introduced into CHO-TREx cells (Invitrogen) by means of FuGene6 lipofection (Roche). […]
CHO-TRex-hSGLT2 cells were seeded in cell culture medium in a concentration of 50 000 cells per well in Cytostar-T scintillating 96-well plates (Amersham Biosciences) and cultivated for 24 h. […] After an incubation time of 120 min at 37° C., the reaction was stopped by adding 50 μl/well of 10 mM methyl-α-D-glucopyranoside in transport assay buffer (4° C.), and the radioactivity taken up into the cells was determined in a MicroBeta Scintillation Microplate Reader (Wallac).
The half-maximum inhibiting action of the test substances (IC50 value) was determined as follows: • 1. […] This is the measurement in the absence of substance, measured in sodium-containing transport assay buffer. • 2. […]

Structures were worked out from names or drawings and are uncertain.

A word on the IC50: it is the midpoint of a concentration-inhibition curve.

For `CCOC(=O)OC[C@H]1O[C@@H](c2ccc(Cl)c(Cc3ccc(Cl)cc3)c2)[C@H](O)[C@@H](O)[C@@H]1F`, the IC50 came out at 3.5 µM.
